Laboratory results taken from article PMC9179926.
Where two headings read alike, the source gives them in different places. No constants are given. Whether binding was seen depends on the method and setting. In cells and extracts the contact can be indirect. Some binding calls cover weakened binding; strength is not graded here.

By UniProt entry, the sequences of proteins in these tests, tags left out.
UniProt Q8N4S9: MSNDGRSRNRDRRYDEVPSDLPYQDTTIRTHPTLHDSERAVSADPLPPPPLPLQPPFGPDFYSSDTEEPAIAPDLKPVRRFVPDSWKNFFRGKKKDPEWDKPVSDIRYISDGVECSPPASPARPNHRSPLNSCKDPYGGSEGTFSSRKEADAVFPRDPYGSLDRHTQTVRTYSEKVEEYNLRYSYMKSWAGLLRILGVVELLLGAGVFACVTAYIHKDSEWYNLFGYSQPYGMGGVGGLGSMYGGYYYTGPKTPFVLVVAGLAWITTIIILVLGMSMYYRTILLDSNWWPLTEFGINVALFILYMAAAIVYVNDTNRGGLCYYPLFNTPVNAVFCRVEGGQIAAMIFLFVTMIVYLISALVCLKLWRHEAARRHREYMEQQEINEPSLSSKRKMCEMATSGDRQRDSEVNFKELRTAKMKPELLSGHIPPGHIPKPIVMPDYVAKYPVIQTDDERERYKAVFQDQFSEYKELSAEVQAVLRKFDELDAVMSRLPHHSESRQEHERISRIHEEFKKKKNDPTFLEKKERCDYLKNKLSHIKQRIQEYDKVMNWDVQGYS

Legend:
[1] = target: T1, cingulin (CGN) (human (endogenous in A253)) (UniProt Q9P2M7); assay: co-IP; A253 cells treated with or without TSA and JNJ (quisinostat) at 10 uM in the presence of EW-7197 and SP600125 at 10 uM; NP-40 lysis buffer (50 mM Tris-HCl, 2% NP-40, 0.25 mM sodium deoxycholate, 150 mM NaCl, 2 mM EGTA); polyclonal anti-CGN antibody on protein A-Sepharose CL-4B overnight at 4 °C; Western blot of the immunoprecipitates
T1 sequence: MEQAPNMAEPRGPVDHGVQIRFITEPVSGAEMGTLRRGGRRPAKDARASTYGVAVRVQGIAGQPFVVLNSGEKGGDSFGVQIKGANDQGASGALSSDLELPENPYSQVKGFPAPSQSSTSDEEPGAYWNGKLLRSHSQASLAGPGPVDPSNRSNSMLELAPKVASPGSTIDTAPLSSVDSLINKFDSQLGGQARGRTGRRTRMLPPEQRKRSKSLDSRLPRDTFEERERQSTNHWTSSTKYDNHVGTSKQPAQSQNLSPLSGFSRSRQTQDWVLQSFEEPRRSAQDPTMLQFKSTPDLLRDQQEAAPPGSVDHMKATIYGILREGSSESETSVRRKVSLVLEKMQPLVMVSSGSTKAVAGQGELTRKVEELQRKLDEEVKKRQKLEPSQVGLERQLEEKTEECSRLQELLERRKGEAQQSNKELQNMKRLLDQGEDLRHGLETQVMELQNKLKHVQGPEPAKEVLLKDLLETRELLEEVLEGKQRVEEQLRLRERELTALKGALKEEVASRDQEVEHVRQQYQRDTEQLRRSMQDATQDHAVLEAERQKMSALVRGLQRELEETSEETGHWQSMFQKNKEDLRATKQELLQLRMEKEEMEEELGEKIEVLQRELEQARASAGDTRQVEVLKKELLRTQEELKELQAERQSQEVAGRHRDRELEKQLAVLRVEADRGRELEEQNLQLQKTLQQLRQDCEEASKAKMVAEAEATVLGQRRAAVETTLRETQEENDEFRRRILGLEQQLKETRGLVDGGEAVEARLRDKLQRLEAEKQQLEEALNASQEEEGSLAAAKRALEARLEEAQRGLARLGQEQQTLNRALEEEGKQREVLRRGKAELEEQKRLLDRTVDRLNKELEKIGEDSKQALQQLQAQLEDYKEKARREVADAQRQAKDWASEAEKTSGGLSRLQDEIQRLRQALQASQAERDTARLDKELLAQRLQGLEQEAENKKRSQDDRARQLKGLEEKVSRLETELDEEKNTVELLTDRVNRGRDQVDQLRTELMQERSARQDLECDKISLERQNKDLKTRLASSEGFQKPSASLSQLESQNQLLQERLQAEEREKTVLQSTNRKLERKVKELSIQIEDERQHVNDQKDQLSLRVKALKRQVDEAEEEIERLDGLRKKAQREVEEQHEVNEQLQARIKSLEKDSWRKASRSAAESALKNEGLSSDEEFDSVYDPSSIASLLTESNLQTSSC

[2] = target: T1, cingulin (CGN) (human (endogenous in A253)); assay: as above; remark: listed apart in the source

tricellulin (TRIC) (from UniProt Q8N4S9 1-558)
binding [1]: binds weakly

B1: angulin-1/lipolysis-stimulated lipoprotein receptor (LSR) (protein, UniProt Q86X29 1-649)
chain: MQQDGLGVGTRNGSGKGRSVHPSWPWCAPRPLRYFGRDARARRAQTAAMALLAGGLSRGLGSHPAAAGRDAVVFVWLLLSTWCTAPARAIQVTVSNPYHVVILFQPVTLPCTYQMTSTPTQPIVIWKYKSFCRDRIADAFSPASVDNQLNAQLAAGNPGYNPYVECQDSVRTVRVVATKQGNAVTLGDYYQGRRITITGNADLTFDQTAWGDSGVYYCSVVSAQDLQGNNEAYAELIVLGRTSGVAELLPGFQAGPIEDWLFVVVVCLAAFLIFLLLGICWCQCCPHTCCCYVRCPCCPDKCCCPEALYAAGKAATSGVPSIYAPSTYAHLSPAKTPPPPAMIPMGPAYNGYPGGYPGDVDRSSSAGGQGSYVPLLRDTDSSVASEVRSGYRIQASQQDDSMRVLYYMEKELANFDPSRPGPPSGRVERAMSEVTSLHEDDWRSRPSRGPALTPIRDEEWGGHSPRSPRGWDQEPAREQAGGGWRARRPRARSVDALDDLTPPSTAESGSRSPTSNGGRSRAYMPPRSRSRDDLYDQDDSRDFPRSRDPHYDDFRSRERPPADPRSHHHRTRDPRDNGSRSGDLPYDGRLLEEAVRKKGSEERRRPHKEEEEEAYYPPAPPPYSETDSQASRERRLKKNLALSRESLVV
binding [2]: no binding

B2: claudin-7 (CLDN-7) (protein, UniProt O95471 1-211)
chain: MANSGLQLLGFSMALLGWVGLVACTAIPQWQMSSYAGDNIITAQAMYKGLWMDCVTQSTGMMSCKMYDSVLALSAALQATRALMVVSLVLGFLAMFVATMGMKCTRCGGDDKVKKARIAMGGGIIFIVAGLAALVACSWYGHQIVTDFYNPLIPTNIKYEFGPAIFIGWAGSALVILGGALLSCSCPGNESKAGYRVPRSYPKSNSSKEYV
binding [2]: no binding
